The source of these data is paper doi:10.1101/204172.

By UniProt entry, the sequences of proteins in these tests, tags left out. Where a name states a change or a piece, a line headed by the entry shows the natural chain unless it says otherwise.
UniProt Q8CIR4: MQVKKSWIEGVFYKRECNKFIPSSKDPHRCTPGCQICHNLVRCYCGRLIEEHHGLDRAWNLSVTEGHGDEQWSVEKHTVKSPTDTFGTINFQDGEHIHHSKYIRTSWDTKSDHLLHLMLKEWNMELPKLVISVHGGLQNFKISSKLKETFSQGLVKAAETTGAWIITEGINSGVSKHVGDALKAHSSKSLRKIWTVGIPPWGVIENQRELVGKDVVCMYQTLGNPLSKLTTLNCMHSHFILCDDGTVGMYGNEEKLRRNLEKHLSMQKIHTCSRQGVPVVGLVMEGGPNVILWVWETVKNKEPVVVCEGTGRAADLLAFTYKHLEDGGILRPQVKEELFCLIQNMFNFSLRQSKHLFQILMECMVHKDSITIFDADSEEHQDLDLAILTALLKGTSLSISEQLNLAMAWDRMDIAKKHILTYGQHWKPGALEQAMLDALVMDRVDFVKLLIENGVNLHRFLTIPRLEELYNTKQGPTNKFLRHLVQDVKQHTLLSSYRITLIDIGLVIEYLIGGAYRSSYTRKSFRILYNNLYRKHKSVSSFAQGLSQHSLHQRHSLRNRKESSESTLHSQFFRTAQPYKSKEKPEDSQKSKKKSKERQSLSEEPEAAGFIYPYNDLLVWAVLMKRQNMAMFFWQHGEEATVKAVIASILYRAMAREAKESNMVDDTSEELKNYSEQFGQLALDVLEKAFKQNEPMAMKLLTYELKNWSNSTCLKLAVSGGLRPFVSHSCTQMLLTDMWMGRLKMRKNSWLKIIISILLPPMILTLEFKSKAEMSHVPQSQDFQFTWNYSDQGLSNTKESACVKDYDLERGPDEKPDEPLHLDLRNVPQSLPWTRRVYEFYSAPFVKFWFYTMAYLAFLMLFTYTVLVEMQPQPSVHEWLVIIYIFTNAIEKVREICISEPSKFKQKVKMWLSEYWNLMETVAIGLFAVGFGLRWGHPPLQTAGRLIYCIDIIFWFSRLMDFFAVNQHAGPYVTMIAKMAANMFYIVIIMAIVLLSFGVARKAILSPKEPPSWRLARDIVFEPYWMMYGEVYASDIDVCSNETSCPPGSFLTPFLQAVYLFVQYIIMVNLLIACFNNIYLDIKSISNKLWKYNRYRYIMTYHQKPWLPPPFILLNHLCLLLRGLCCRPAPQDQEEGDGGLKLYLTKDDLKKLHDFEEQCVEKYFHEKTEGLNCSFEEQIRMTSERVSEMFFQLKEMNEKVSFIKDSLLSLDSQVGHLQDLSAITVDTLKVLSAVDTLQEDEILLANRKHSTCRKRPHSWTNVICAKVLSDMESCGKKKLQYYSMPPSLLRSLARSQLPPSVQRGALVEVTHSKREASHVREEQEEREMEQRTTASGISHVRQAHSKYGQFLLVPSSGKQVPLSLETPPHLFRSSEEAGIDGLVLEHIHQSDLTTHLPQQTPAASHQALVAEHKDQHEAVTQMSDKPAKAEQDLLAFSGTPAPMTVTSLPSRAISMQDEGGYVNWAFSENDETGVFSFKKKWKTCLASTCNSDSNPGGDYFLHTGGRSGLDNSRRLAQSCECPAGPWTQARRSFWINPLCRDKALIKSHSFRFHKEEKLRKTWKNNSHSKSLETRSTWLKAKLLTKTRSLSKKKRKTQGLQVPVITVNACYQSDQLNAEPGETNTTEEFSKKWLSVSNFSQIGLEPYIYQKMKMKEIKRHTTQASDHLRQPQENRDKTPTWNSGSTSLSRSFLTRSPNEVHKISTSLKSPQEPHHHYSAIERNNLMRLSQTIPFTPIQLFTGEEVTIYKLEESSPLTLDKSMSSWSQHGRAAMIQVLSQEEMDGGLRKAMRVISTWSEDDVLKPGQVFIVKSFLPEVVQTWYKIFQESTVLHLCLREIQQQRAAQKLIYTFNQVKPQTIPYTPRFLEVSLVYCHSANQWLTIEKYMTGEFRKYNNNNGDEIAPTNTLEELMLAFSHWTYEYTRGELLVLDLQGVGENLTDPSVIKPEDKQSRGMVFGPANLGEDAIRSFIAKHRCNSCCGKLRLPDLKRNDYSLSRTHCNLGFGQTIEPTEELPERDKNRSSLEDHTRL
UniProt Q923J1: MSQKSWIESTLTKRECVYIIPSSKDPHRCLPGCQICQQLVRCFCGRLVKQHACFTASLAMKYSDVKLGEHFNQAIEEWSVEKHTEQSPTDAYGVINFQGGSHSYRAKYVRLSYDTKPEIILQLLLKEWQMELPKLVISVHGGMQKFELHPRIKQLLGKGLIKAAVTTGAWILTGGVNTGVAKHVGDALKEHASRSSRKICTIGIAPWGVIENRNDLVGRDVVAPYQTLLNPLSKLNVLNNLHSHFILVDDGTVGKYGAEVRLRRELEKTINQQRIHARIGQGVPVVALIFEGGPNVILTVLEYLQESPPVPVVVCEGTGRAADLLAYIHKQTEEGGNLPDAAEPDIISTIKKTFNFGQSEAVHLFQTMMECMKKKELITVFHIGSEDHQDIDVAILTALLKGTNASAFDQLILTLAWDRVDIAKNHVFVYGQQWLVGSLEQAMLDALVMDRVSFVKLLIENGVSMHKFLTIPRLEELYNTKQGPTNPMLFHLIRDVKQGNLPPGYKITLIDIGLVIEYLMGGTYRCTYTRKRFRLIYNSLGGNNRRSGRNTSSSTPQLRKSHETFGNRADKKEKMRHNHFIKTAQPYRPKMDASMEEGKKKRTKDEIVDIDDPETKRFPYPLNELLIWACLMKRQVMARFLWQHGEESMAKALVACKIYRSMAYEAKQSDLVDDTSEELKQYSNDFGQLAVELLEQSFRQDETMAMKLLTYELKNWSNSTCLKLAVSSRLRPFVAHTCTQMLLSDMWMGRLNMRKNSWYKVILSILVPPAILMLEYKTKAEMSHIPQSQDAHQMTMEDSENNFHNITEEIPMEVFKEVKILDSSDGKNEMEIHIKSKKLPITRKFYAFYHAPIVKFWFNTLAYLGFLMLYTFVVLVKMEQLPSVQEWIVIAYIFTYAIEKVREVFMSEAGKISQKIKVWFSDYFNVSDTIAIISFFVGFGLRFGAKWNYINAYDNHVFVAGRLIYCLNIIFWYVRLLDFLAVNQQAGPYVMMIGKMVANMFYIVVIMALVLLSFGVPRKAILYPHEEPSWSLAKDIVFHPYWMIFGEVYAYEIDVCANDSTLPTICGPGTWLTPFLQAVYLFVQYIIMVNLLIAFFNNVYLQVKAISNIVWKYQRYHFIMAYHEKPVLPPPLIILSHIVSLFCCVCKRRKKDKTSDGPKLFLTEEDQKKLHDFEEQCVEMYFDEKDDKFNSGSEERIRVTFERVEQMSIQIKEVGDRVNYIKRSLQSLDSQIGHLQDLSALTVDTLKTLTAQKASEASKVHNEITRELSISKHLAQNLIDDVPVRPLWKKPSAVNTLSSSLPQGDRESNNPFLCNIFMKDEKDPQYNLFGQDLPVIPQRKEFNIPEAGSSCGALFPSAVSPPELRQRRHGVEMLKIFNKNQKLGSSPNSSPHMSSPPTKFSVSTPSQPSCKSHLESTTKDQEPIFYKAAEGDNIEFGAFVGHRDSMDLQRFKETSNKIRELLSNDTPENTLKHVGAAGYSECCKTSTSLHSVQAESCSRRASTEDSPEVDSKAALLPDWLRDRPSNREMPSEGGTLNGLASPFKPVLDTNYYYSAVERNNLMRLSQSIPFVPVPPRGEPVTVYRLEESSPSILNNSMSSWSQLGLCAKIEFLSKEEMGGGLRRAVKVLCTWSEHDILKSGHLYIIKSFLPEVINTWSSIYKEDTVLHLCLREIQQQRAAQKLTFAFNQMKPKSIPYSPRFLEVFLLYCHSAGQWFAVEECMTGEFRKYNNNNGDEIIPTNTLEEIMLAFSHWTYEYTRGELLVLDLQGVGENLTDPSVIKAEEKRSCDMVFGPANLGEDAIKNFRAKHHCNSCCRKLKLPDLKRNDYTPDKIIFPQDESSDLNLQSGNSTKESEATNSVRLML
UniProt P15116: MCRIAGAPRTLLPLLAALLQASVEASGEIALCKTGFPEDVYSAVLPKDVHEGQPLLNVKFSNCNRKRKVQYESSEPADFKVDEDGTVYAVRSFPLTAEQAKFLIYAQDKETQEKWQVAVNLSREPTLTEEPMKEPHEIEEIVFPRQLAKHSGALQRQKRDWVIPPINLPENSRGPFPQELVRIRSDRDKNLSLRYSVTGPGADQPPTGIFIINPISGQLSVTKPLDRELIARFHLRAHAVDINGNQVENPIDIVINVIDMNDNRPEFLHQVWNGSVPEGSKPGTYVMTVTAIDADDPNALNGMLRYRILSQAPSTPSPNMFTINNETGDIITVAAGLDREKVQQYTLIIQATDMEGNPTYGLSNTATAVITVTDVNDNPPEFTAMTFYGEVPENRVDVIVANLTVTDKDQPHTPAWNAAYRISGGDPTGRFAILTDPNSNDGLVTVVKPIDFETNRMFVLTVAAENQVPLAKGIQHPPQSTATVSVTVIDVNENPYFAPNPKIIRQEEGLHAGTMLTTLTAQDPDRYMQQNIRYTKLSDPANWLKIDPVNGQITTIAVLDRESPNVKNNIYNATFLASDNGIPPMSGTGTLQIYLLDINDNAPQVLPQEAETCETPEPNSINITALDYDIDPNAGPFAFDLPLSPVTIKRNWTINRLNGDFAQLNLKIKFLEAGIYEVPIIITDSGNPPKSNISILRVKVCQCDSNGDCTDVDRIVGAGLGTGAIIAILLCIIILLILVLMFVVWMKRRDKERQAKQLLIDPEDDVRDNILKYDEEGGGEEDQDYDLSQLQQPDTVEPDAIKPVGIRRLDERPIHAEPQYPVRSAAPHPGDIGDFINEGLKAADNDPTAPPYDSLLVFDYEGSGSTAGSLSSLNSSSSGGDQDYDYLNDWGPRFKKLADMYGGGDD

Results are given in words; binding and its absence hold for the method and conditions named. For part of these data: Binding seen in cells or lysates may run through a third protein.

Assay [1] addresses HA-tagged TRPM6 (canonical splice form, full length) (mouse) (UniProt Q8CIR4). Kind of assay: co-IP.
Assay [2] addresses HA-tagged TRPM7 (canonical splice form, full length) (mouse) (UniProt Q923J1). Kind of assay: co-IP.
The next assay concerns the target T1, USH1C (harmonin) (UniProt Q9ES64).
T1 sequence: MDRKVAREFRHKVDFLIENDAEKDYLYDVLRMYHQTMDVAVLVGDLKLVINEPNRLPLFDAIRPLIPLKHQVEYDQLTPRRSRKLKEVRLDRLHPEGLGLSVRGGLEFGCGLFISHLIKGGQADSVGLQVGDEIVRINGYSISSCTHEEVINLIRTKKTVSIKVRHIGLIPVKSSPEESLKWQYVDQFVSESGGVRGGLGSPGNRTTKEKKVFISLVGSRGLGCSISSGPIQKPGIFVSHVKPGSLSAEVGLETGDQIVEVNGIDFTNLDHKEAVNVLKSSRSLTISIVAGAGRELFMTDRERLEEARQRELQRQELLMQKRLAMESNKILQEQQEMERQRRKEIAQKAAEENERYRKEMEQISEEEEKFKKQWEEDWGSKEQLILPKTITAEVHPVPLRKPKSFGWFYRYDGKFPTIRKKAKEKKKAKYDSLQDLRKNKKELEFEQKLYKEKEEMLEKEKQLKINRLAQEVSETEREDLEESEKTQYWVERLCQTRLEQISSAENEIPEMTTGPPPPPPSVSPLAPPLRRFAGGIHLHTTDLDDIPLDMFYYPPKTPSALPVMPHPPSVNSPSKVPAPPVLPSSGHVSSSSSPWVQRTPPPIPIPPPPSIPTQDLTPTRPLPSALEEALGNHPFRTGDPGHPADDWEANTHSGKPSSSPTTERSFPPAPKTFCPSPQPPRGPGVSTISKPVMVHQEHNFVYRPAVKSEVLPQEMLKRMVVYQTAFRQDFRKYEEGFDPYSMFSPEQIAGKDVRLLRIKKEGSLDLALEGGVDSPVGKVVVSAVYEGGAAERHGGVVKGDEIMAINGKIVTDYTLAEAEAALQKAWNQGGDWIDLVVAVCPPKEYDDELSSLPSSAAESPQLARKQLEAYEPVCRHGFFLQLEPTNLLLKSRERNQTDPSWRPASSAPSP
As to the kind of experiment: two-hybrid.

For CDH2 (N-cadherin) (from UniProt P15116), the binding entry in assay [1] and in assay [2] was “no binding” in each case.
Take “TRPV6, the 33 terminal amino acids with the C-terminal seven amino acids deleted (domain or fragment)”: the binding result with USH1C (harmonin) is “no binding”.
